Several values for one entry are separate records, joined by “and”; a condition that tells them apart may be missing. Equal values may be shown once. Where a name gives a salt, the structure may show the parent alone. The list shows a part of the results. Many values rest on one well or one pass, so single values are uncertain.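 The strains were three CDC resistance-bank clinical C. auris isolates from clades III, IV and I, cultured in RPMI-1640 at 35°C. Growth was background-corrected OD600 versus vehicle-only wells on the same plate. A hit needed >50% inhibition in two or more strains plus a plate-corrected B-score exceeding 0.1.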
What was measured:
Assay in all cases: growth relative to vehicle control (OD600 ratio) (fraction); higher = less inhibition
Settings in all cases: 24 h
C. auris AR-384 = system: C. auris AR-384
C. auris AR-386 = system: C. auris AR-386
C. auris AR-387 = system: C. auris AR-387

Structure (SMILES)	growth (C. auris AR-384; 1 µM)	growth (C. auris AR-384; 10 µM)	growth (C. auris AR-386; 1 µM)	growth (C. auris AR-386; 10 µM)	growth (C. auris AR-387; 1 µM)	growth (C. auris AR-387; 10 µM)
CCN(CCO)CCCC(C)Nc1ccnc2cc(Cl)ccc12 (stereo unspecified) [Hydroxychloroquine Sulfate]	0.78	1.19	0.94	1.11	0.83	0.98
NC(=O)c1cccc2cn(-c3ccc([C@@H]4CCCNC4)cc3)nc12 [Niraparib (MK-4827) tosylate]	0.93	0.76	1.31	0.63	0.7	0.66
Cc1cncc(CN2CCC(=C3c4ccc(Cl)cc4CCc4cccnc43)CC2)c1 [Rupatadine Fumarate]	1.1	1.04	0.9	0.92	0.85	0.8
CC(C)(C)c1ccc(C(O)CCCN2CCC(C(O)(c3ccccc3)c3ccccc3)CC2)cc1 (stereo unspecified) [Terfenadine]	1.44	1.47	1.12	0.97	0.93	1.42
OCCOCCN1CCN(C2=Nc3ccccc3Sc3ccccc32)CC1 [Quetiapine Fumarate]	0.89	0.88	0.78	0.6	0.7	0.87
CN[C@H](CC(C)C)C(=O)N[C@H]1C(=O)N[C@@H](CC(N)=O)C(=O)N[C@H]2C(=O)N[C@H]3C(=O)N[C@H](C(=O)N[C@H](C(=O)O)c4cc(O)cc(O)c4-c4cc3ccc4O)[C@H](O)c3ccc(c(Cl)c3)Oc3cc2cc(c3O[C@@H]2O[C@H](CO)[C@@H](O)[C@H](O)[C@H]2O[C@H]2C[C@](C)(N)[C@H](O)[C@H](C)O2)Oc2ccc(cc2Cl)[C@H]1O [Vancomycin HCl]	0.74	1.25	0.98	1.01	1.07	1.25
Cc1ccc(C(=O)Nc2ccc(CN3CCN(C)CC3)c(C(F)(F)F)c2)cc1C#Cc1cnc2cccnn12	0.71	0.65	1.14	1.14	0.97	0.68
CN1CCC(=C2c3ccccc3CC(=O)c3sccc32)CC1 [Ketotifen Fumarate]	0.99	1.04	1	1.08	1.14	1.24
CC(C)NCC(O)c1ccc(NS(C)(=O)=O)cc1 (stereo unspecified) [Sotalol HCl]	0.76	0.76	0.58	0.77	0.94	0.72
C=CC[C@@H]1/C=C(\C)C[C@H](C)C[C@H](OC)[C@H]2O[C@@](O)(C(=O)C(=O)N3CCCC[C@H]3C(=O)O[C@H](/C(C)=C/[C@@H]3CC[C@@H](O)[C@H](OC)C3)[C@H](C)[C@@H](O)CC1=O)[C@H](C)C[C@@H]2OC [Tacrolimus (FK506)]	1.1	1.25	0.78	0.97	0.88	1.09
C[C@H](CCC(=O)O)[C@H]1CC[C@H]2[C@@H]3CC[C@@H]4C[C@H](O)CC[C@]4(C)[C@H]3C[C@H](O)[C@]12C [Deoxycholic acid]	1.08	1.11	0.68	0.9	0.82	0.73
CC(C(=O)O)c1ccc2c(c1)CC(=O)c1ccccc1S2 (stereo unspecified) [Zaltoprofen]	0.87	0.89	0.88	0.99	0.85	1.14
C[C@@H](CN1CC(=O)NC(=O)C1)N1CC(=O)NC(=O)C1 [Dexrazoxane HCl (ICRF-187, ADR-529)]	1.16	0.85	1.11	1.19	0.83	1.27
O=C(O)C[C@H](O)C[C@H](O)/C=C/c1c(C2CC2)nc2ccccc2c1-c1ccc(F)cc1 [Pitavastatin Calcium]	0.87	0.7	0.9	0.65	0.85	0.84
CCOc1ccc2nc3cc(N)ccc3c(N)c2c1 [Ethacridine lactate monohydrate]	0.94	0.97	0.73	0.62	0.72	0.7
COc1ccc(C[C@H](N)C(=O)N[C@H]2[C@@H](O)[C@H](n3cnc4c(N(C)C)ncnc43)O[C@@H]2CO)cc1 [Puromycin 2HCl]	0.74	0.83	0.82	0.83	0.9	0.86
CCn1cc(C(=O)O)c(=O)c2cc(F)c(N3CCN(C)CC3)cc21 [Pefloxacin Mesylate Dihydrate]	0.77	0.9	0.86	0.88	1.03	0.81
CS(=O)(=O)n1cc2c(n1)CN([C@H]1CO[C@H](c3cc(F)ccc3F)[C@@H](N)C1)C2 [Omarigliptin (MK-3102)]	1.13	1.34	1.14	1.22	1.13	1.12
CC(=O)OCC(=O)[C@@]1(O)CC[C@H]2[C@@H]3CCC4=CC(=O)CC[C@]4(C)[C@@]3(F)[C@@H](O)C[C@@]21C [Fludrocortisone acetate]	1	0.77	1.09	0.76	0.87	0.83
CC(C)(Oc1ccc(C(=O)c2ccc(Cl)cc2)cc1)C(=O)O [Fenofibric acid]	0.68	0.87	0.81	0.77	0.66	0.85
C[C@@H]1CCN(C(=O)CC#N)C[C@@H]1N(C)c1ncnc2[nH]ccc12	0.79 and 0.8	0.66 and 0.75	0.88 and 0.85	0.97 and 0.55	0.87 and 0.7	1.06 and 0.75
O=NN(CCCl)C(=O)NCCCl [Carmustine]	0.69	0.66	0.74	0.94	0.69	0.77
O.O.O.O.O=C([O-])CC(O)(CC(=O)[O-])C(=O)[O-].[Li+].[Li+].[Li+] [Citric acid trilithium salt tetrahydrate]	0.9	0.83	0.96	0.9	0.92	1.03
O=C(CCNNC(=O)c1ccncc1)NCc1ccccc1 [Nialamide]	1.21	1.22	0.95	0.98	0.95	0.8
CN1CCN(C2=Nc3cc(Cl)ccc3Nc3ccccc32)CC1 [Clozapine]	0.93	1.1	0.97	0.73	0.88	0.76
CCOC(=O)c1c(C)n(C)c2ccc(O)cc12 [Mecarbinate]	0.99	0.8	0.94	1.14	1.04	1.1

Looked up above:
OCCOCCN1CCN(C2=Nc3ccccc3Sc3ccccc32)CC1 [Quetiapine Fumarate] – growth (C. auris AR-384; 1 µM): 0.89
CCOc1ccc2nc3cc(N)ccc3c(N)c2c1 [Ethacridine lactate monohydrate] – growth (C. auris AR-384; 1 µM): 0.94
